Experimental data reported in paper PMC4065374.
Results are given in words; binding and its absence hold for the method and conditions named. Binding seen in cells or lysates may run through a third protein. Binding can be weak; no strength is given. Tags and fused reporters may be left off the sequences shown.

Target: Aeromonas caviae Maf1 with C-terminal penta-His tag (Maf1-His) (Aeromonas caviae)
Test: pull-down; in vivo pull-down: Maf1-His expressed in A. caviae (wild-type or neuB mutant) purified with associated proteins from the lysate by nickel-affinity chromatography (20 mM phosphate pH 7.4, 0.5 M NaCl, 50 mM imidazole wash; imidazole step elution); fractions blotted with α-His and α-FlaA/B(−pse)

B1: unglycosylated Aeromonas caviae flagellin FlaB in a neuB mutant (protein, UniProt Q9R9R8 1-305)
chain: MAMYINTNTSSLNAQRNLMNTSKSMDTSYTRLASGLRINSAKDDAAGLQISNRLTSQINGLDQGNRNANDGISLAQTAEGAMDEVTGMLQRMRTLAQQSANGSNSDKDRAALQKEVNQLGAEINRISKDTTFAGTKLLDGNYSGKFQVGADANQTIGFSLSQAGGFSISGIAKAAGTTIDIVSGPAGSVTTATGISLIFVSGSAGGISISTQSKAQAVLAAADAMLEVVDGKRAELGAVQNRLDSTIRNQANISENVSAARSRIRDANFATETANMTKHNILQQAASSILAQANQRPQSALQLLG
binding: binds
